# At least one compound was matched to its structure with a doubt left.
# Experiments:
# [1] = test system: IRBP R16-induced experimental autoimmune uveoretinitis (EAU); experiment: Bovine IRBP R16-induced experimental autoimmune uveoretinitis (EAU): clinical score, AUC, incidence (Example 6); assay type: in vivo, Lewis rats; conditions: 0.4 mg/kg PO QD × 16 days
# Experimental: On Day-1 (i.e., the day before immunization, hereinafter), 60 rats were randomly divided into 6 groups (n=10) based on body weight (see Table 18). On Day 0, rats in Groups 2 to 6 were anesthetized with isoflurane, followed by subcutaneous injection of a total of […] of emulsion resulting from IRBP R16 and CFA emulsified at a 1:1 v/v ratio, on both thighs (50 μL at each site) and tail head (100 μL), respectively.
# From Day 0 after immunization, the eyes of rats were checked daily with a flashlight by gently opening the upper and lower eyelids of the test rats, and the incidence of disease was recorded. Clinical symptoms were scored in a blind manner from the onset of disease to the end of the study according to the criteria listed in Table 17.
# Dosing started from Day 0 accurately according to the animal body weight for a total of 16 days.
# The results were expressed as “mean±standard error”. Graphpad Prism or SPSS was used for statistical analysis, and p<0.05 was considered statistically significant.
# [2] = test system: imiquimod (IMQ)-induced psoriasis; experiment: Imiquimod (IMQ)-induced psoriasis in mice: erythema, scales, thickness, total score, AUC (Example 8); assay type: in vivo, Balb/c mice; conditions: 2 mg/kg topical QD × 7 days
# Experimental: All mice were shaved with a pet shaver to get an area of 2×3 cm on the back one day before the start of the experiment.
# 65 animals were randomly divided into groups according to body weight, and the dosing regimen was as follows.
# Imiquimod (IMQ) cream: 62.5 mg of IMQ cream for each mouse in G2 to G7; Dexamethasone (DEX) ointment: 70 mg of ointment for each mouse in G4;
# Tofacitinib: Tofacitinib was dissolved in dimethyl sulfoxide to 5 mg/mL, and 50 μL was added to IMQ cream for daily treatment.
# Mice in Groups 2 to 7 received daily topical doses of 62.5 mg of IMQ cream on their shaved back from Day 0 to Day 7.
# Dosing of the test compounds and reference substance was carried out according to Table 29 for 7 consecutive days.
# To assess the severity of inflammation of skin on the back, the skin on the back was scored according to Table 30. Erythema, scales and thickening were scored independently on a scale of 0 to 3, 0, none; 1. mild; 2. moderate; 3. obvious/severe.
# The inhibition rate was calculated according to the following formula: Inhibition rate=[AUC (solvent)−AUC (treatment)]/AUC (solvent)×100%. Wherein, solvent referred to the solvent group corresponding to the route of administration.
# [3] = test system: dextran sulfate sodium (DSS)-induced colitis; experiment: DSS-induced colitis in mice, 3.1% DSS: body weight change and DAI (Example 11); assay type: in vivo, C57BL/6 mice; conditions: 100 mg/kg, qd
# Source text: The experimental mice were housed in an SPF grade animal room for three days for adaptation, and randomly divided into 7 groups (6 model groups and 1 control group) of 10 mice in each group. Dosing of mice started on Day 0 and ended on Day 7.
# The mouse enteritis model of this Example was established by DSS induction: mice in the model group were provided with a 3.1% DSS (dextran sulfate sodium, molecular weight 36,000-50,000) aqueous solution from Day 0 to Day 7, and the DSS aqueous solution was replaced with freshly prepared solution every day to prevent degradation. Mice in the normal control group were provided with normal water. The experimental period was 9 days, and the mice were euthanized and samples were collected at the experimental endpoint.
# The DAI score was assessed daily. The DAI score consisted of 3 parts: body weight change, stool characteristics, and hematochezia (or occult blood) score, and the specific scoring criteria were as shown in Table 49. The DAI scoring of all mice was done by the same staff throughout the experiment.
# Mice were euthanized at the experimental endpoint. The colon of mice was dissected, and photograph was taken, the length was measured, and the contents were removed before weighing.
# The data were expressed as mean±standard error (X±s). Body weight change and disease activity score were statistically analyzed by two-way ANOVA and comparison between groups were performed by Dunnett's test. Other data were statistically analyzed by one-way ANOVA and comparison between groups were performed by Dunnett's test. All analyses were performed using GraphPad Prism software. * P<0.05, ** P<0.01, *** P<0.005, **** P<0.0001 vs. solvent group.
Structure (SMILES),clinical score and clinical score AUC of uveitis [1],effect on skin inflammation [2],"symptoms caused by DSS-induced colitis (diarrhea, hematochezia) [3]",DSS-induced body weight loss ([3]; vs solvent group),"disease activity score (DAI) ([3]; vs solvent group, relatively obvious on Day 4 and Day 5)"
C[C@@H]1C[C@H]2[C@@H]3CCC4=CC(=O)C=C[C@]4(C)[C@@]3(F)[C@@H](O)C[C@]2(C)[C@@]1(O)C(=O)CO [Dexamethasone],significantly reduced the clinical score and clinical score AUC of uveitis,significant inhibitory effect on inflammation,,,
CCN(CC)C(=S)SSC(=S)N(CC)CC [Disulfiram],,,slightly ameliorate the symptoms of diarrhea and hematochezia,failed to effectively alleviate DSS-induced body weight loss,slightly improved

# Source: patent US20250134870A1, “PATHWAY MODULATOR, PHARMACEUTICAL COMPOSITION HAVING SAME, USE THEREOF, AND THERAPEUTIC METHOD USING SAME” (Jiangsu Yahong Meditech Co., Ltd., priority 2021, published 2025)
